These are yes or no findings as the source states them, for the method shown. Some binding calls cover weakened binding; strength is not graded here.
target: TAR DNA-binding protein 43 (human (endogenous in post-mortem brain)) (UniProt Q13148); experiment: single-molecule pulldown (SiMPull); CAP1-SiMPull with colabelling: aggregates of human brain extracts captured on biotinylated CAP1, detected with a fluorescent TDP-43 antibody and a second fluorescent antibody against the protein of interest; spots within a 4-pixel radius counted as colabelled; MND TDP cohort compared with controls

Amino acid sequences for entries named in this document (tags omitted).
UniProt Q13148: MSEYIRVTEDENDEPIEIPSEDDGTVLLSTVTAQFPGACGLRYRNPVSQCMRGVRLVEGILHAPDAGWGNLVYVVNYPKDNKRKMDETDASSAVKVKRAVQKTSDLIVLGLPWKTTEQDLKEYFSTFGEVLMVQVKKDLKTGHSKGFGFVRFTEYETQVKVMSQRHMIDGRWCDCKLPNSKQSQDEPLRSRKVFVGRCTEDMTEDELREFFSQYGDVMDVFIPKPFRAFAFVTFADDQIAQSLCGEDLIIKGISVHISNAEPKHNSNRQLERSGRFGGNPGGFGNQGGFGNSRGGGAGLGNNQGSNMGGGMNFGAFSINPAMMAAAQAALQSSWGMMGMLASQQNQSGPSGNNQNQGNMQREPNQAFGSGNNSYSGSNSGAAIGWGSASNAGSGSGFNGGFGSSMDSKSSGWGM
UniProt P35637: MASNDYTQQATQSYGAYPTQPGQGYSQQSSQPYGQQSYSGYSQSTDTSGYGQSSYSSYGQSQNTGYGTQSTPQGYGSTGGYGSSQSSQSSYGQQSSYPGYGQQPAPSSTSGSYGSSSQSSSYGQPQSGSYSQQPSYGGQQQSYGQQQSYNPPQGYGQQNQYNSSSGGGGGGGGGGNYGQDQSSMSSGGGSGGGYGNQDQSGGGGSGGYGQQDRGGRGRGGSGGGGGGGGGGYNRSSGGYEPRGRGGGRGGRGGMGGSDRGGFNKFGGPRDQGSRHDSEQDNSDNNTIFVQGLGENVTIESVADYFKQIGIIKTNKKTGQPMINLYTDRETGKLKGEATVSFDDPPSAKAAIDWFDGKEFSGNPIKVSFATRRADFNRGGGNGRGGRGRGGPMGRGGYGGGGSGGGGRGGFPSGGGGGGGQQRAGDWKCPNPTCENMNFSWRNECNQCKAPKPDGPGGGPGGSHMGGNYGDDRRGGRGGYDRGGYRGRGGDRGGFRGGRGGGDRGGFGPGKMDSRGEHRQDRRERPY
UniProt P21926: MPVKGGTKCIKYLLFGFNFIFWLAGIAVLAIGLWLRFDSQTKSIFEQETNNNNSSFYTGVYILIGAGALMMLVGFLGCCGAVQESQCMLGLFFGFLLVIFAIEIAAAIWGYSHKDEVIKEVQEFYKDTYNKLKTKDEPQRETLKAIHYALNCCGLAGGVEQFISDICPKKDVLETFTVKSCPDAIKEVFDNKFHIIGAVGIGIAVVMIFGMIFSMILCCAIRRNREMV
UniProt P06748: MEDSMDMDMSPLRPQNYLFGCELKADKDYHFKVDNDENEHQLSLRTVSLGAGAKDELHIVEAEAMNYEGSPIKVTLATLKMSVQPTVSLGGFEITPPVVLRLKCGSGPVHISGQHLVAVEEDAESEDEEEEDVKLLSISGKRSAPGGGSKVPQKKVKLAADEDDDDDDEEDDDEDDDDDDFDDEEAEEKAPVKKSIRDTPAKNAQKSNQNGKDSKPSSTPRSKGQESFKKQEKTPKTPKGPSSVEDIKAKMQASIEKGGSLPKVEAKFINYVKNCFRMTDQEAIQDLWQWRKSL

binding, binds:
FUS (from UniProt P35637 1-526), CD9 (from UniProt P21926 1-228), nucleophosmin (from UniProt P06748 1-294)
